The list shows a part of the results.
What was measured:
Experiment in all cases: glycan array binding signal (z-score within array); higher = stronger binding
Conditions in all cases: glycan notation: IUPAC condensed, linker removed
[1] = target: Neu5Ac(a2-3)Gal(b1-4)GlcNAc(b1-6)GalNAc
Summary of the method: (§1)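 The binding signal is a Z-score computed within each array. Data were drawn from 3228 arrays in the Consortium for Functional Glycomics database, restricted to those with a known protein sequence. Scores were averaged over arrays of the same protein sequence at different concentrations or buffers, and over linkers, and negative values can be taken as non-binding.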

[2] = target: Neu5Ac(a2-3)Gal(b1-4)GlcNAc(b1-6)[Gal(b1-3)]GalNAc
Summary of the method: as §1

[3] = target: Neu5Ac(a2-3)Gal(b1-4)GlcNAc(b1-6)[Neu5Ac(a2-3)Gal(b1-3)]GalNAc
Summary of the method: as §1

[4] = target: Neu5Ac(a2-3)Gal(b1-4)GlcNAc6S
Summary of the method: as §1

[5] = target: Neu5Ac(a2-3)Gal(b1-4)[Fuc(a1-3)]GlcNAc
Summary of the method: as §1

[6] = target: Neu5Ac(a2-3)Gal(b1-4)[Fuc(a1-3)]GlcNAc(b1-2)Man
Summary of the method: as §1

[7] = target: Neu5Ac(a2-3)Gal(b1-4)[Fuc(a1-3)]GlcNAc(b1-3)Gal
Summary of the method: as §1

[8] = target: Neu5Ac(a2-3)Gal(b1-4)[Fuc(a1-3)]GlcNAc(b1-3)Gal(b1-4)GlcNAc
Summary of the method: as §1

[9] = target: Neu5Ac(a2-3)Gal(b1-4)[Fuc(a1-3)]GlcNAc(b1-3)Gal(b1-4)[Fuc(a1-3)]GlcNAc(b1-3)Gal(b1-4)[Fuc(a1-3)]GlcNAc
Summary of the method: as §1

[10] = target: Neu5Ac(a2-3)Gal(b1-4)[Fuc(a1-3)]GlcNAc(b1-3)GalNAc
Summary of the method: as §1

[11] = target: Neu5Ac(a2-3)Gal(b1-4)[Fuc(a1-3)]GlcNAc(b1-6)[Gal(b1-3)]GalNAc
Summary of the method: as §1

[12] = target: Neu5Ac(a2-3)Gal(b1-4)[Fuc(a1-3)]GlcNAc(b1-6)[Neu5Ac(a2-3)Gal(b1-3)]GalNAc
Summary of the method: as §1

[13] = target: Neu5Ac(a2-3)Gal(b1-4)[Fuc(a1-3)]GlcNAc6S
Summary of the method: as §1

[14] = target: Neu5Ac(a2-3)Gal6S(b1-4)GlcNAc
Summary of the method: as §1

[15] = target: Neu5Ac(a2-3)Gal6S(b1-4)[Fuc(a1-3)]GlcNAc
Summary of the method: as §1

Neu5Ac(a2-3)GalNAc = target: Neu5Ac(a2-3)GalNAc
Summary of the method: as §1

[16] = target: Neu5Ac(a2-3)GalNAc(b1-4)GlcNAc
Summary of the method: as §1

[17] = target: Neu5Ac(a2-3)[GalNAc(b1-4)]Gal(b1-4)Glc
Summary of the method: as §1

[18] = target: Neu5Ac(a2-3)[GalNAc(b1-4)]Gal(b1-4)GlcNAc
Summary of the method: as §1

[19] = target: Neu5Ac(a2-3)[GalNAc(b1-4)]Gal(b1-4)GlcNAc(b1-3)GalNAc
Summary of the method: as §1

[20] = target: Neu5Ac(a2-3)[Neu5Ac(a2-6)]GalNAc
Summary of the method: as §1

Neu5Ac(a2-6)Gal = target: Neu5Ac(a2-6)Gal
Summary of the method: as §1

[21] = target: Neu5Ac(a2-6)Gal(b1-3)GlcNAc(b1-3)[Gal(b1-4)GlcNAc(b1-6)]Gal(b1-4)Glc
Summary of the method: as §1

Neu5Ac(a2-6)Gal(b1-4)Glc = target: Neu5Ac(a2-6)Gal(b1-4)Glc
Summary of the method: as §1

[22] = target: Neu5Ac(a2-6)Gal(b1-4)GlcNAc
Summary of the method: as §1

[23] = target: Neu5Ac(a2-6)Gal(b1-4)GlcNAc(b1-2)Man
Summary of the method: as §1

[24] = target: Neu5Ac(a2-6)Gal(b1-4)GlcNAc(b1-2)Man(a1-3)Man(b1-4)GlcNAc(b1-4)GlcNAc
Summary of the method: as §1

[25] = target: Neu5Ac(a2-6)Gal(b1-4)GlcNAc(b1-2)Man(a1-3)[Gal(b1-4)GlcNAc(b1-2)Man(a1-6)]Man(b1-4)GlcNAc(b1-4)GlcNAc
Summary of the method: as §1

[26] = target: Neu5Ac(a2-6)Gal(b1-4)GlcNAc(b1-2)Man(a1-3)[GlcNAc(b1-2)Man(a1-6)]Man(b1-4)GlcNAc(b1-4)GlcNAc
Summary of the method: as §1

[27] = target: Neu5Ac(a2-6)Gal(b1-4)GlcNAc(b1-2)Man(a1-3)[GlcNAc(b1-4)][Neu5Ac(a2-6)Gal(b1-4)GlcNAc(b1-2)Man(a1-6)]Man(b1-4)GlcNAc(b1-4)GlcNAc
Summary of the method: as §1

[28] = target: Neu5Ac(a2-6)Gal(b1-4)GlcNAc(b1-2)Man(a1-3)[Man(a1-6)]Man(b1-4)GlcNAc(b1-4)GlcNAc
Summary of the method: as §1

[29] = target: Neu5Ac(a2-6)Gal(b1-4)GlcNAc(b1-2)Man(a1-3)[Neu5Ac(a2-3)Gal(b1-4)GlcNAc(b1-2)Man(a1-6)]Man(b1-4)GlcNAc(b1-4)GlcNAc
Summary of the method: as §1

[30] = target: Neu5Ac(a2-6)Gal(b1-4)GlcNAc(b1-2)Man(a1-3)[Neu5Ac(a2-6)Gal(b1-4)GlcNAc(b1-2)Man(a1-6)]Man(b1-4)GlcNAc(b1-4)GlcNAc
Summary of the method: as §1

[31] = target: Neu5Ac(a2-6)Gal(b1-4)GlcNAc(b1-2)Man(a1-3)[Neu5Ac(a2-6)Gal(b1-4)GlcNAc(b1-2)Man(a1-6)]Man(b1-4)GlcNAc(b1-4)[Fuc(a1-6)]GlcNAc
Summary of the method: as §1

[32] = target: Neu5Ac(a2-6)Gal(b1-4)GlcNAc(b1-2)Man(a1-6)Man(b1-4)GlcNAc(b1-4)GlcNAc
Summary of the method: as §1

[33] = target: Neu5Ac(a2-6)Gal(b1-4)GlcNAc(b1-2)Man(a1-6)[Gal(b1-4)GlcNAc(b1-2)Man(a1-3)]Man(b1-4)GlcNAc(b1-4)GlcNAc
Summary of the method: as §1

[34] = target: Neu5Ac(a2-6)Gal(b1-4)GlcNAc(b1-2)Man(a1-6)[GlcNAc(b1-2)Man(a1-3)]Man(b1-4)GlcNAc(b1-4)GlcNAc
Summary of the method: as §1

[35] = target: Neu5Ac(a2-6)Gal(b1-4)GlcNAc(b1-2)Man(a1-6)[Man(a1-3)]Man(b1-4)GlcNAc(b1-4)GlcNAc
Summary of the method: as §1

[36] = target: Neu5Ac(a2-6)Gal(b1-4)GlcNAc(b1-2)[Neu5Ac(a2-6)Gal(b1-4)GlcNAc(b1-4)]Man(a1-3)[GlcNAc(b1-4)][Neu5Ac(a2-6)Gal(b1-4)GlcNAc(b1-2)[Neu5Ac(a2-6)Gal(b1-4)GlcNAc(b1-6)]Man(a1-6)]Man(b1-4)GlcNAc(b1-4)GlcNAc
Summary of the method: as §1

[37] = target: Neu5Ac(a2-6)Gal(b1-4)GlcNAc(b1-2)[Neu5Ac(a2-6)Gal(b1-4)GlcNAc(b1-4)]Man(a1-3)[GlcNAc(b1-4)][Neu5Ac(a2-6)Gal(b1-4)GlcNAc(b1-4)Man(a1-6)]Man(b1-4)GlcNAc(b1-4)GlcNAc
Summary of the method: as §1

[38] = target: Neu5Ac(a2-6)Gal(b1-4)GlcNAc(b1-2)[Neu5Ac(a2-6)Gal(b1-4)GlcNAc(b1-6)]Man(a1-6)[Neu5Ac(a2-6)Gal(b1-4)GlcNAc(b1-2)Man(a1-3)][GlcNAc(b1-4)]Man(b1-4)GlcNAc(b1-4)GlcNAc
Summary of the method: as §1

[39] = target: Neu5Ac(a2-6)Gal(b1-4)GlcNAc(b1-3)Gal(b1-3)GlcNAc
Summary of the method: as §1

[40] = target: Neu5Ac(a2-6)Gal(b1-4)GlcNAc(b1-3)Gal(b1-4)GlcNAc
Summary of the method: as §1

[41] = target: Neu5Ac(a2-6)Gal(b1-4)GlcNAc(b1-3)Gal(b1-4)GlcNAc(b1-2)Man(a1-3)[Neu5Ac(a2-6)Gal(b1-4)GlcNAc(b1-3)Gal(b1-4)GlcNAc(b1-2)Man(a1-6)]GalNAc
Summary of the method: as §1

[42] = target: Neu5Ac(a2-6)Gal(b1-4)GlcNAc(b1-3)Gal(b1-4)GlcNAc(b1-3)Gal(b1-4)GlcNAc
Summary of the method: as §1

[43] = target: Neu5Ac(a2-6)Gal(b1-4)GlcNAc(b1-3)Gal(b1-4)GlcNAc(b1-3)Gal(b1-4)GlcNAc(b1-2)Man(a1-3)[Neu5Ac(a2-6)Gal(b1-4)GlcNAc(b1-3)Gal(b1-4)GlcNAc(b1-3)Gal(b1-4)GlcNAc(b1-2)Man(a1-6)]GalNAc
Summary of the method: as §1

B1: EUL D1A first (Oryza sativa) (protein)
chain: MFGFGHHHNQAPAAPSDPNQIFKIFCRANENYCLTVRDSAVVLAPVNPKDEHQHWFKDMRFSTKVKDGEGMPAFALVNKATGLAVKHSLGQSHPVKLVPFNPEYEDASVLWTESKDVGKGFRCIRMVNNTRLNLDAFHGDKDHGGVRDGTTVVLWEWCKGDNQSWKILPWGPEAHSSSPGAATILEQKLISEEDLNSAVDHHHHHH
With B1 the “glycan array binding signal (z-score)” value [1] was -0.841, the “glycan array binding signal (z-score)” value [2] was 0.081 and the “glycan array binding signal (z-score)” value [3] was -0.446. For the same binder, the “glycan array binding signal (z-score)” value [4] was -1.5, the “glycan array binding signal (z-score)” value [5] was -0.144 and the “glycan array binding signal (z-score)” value [6] was -0.26. For the same binder, the “glycan array binding signal (z-score)” value [7] was -0.866, the “glycan array binding signal (z-score)” value [8] was 0.491 and the “glycan array binding signal (z-score)” value [9] was -0.461. For the same binder, the “glycan array binding signal (z-score)” value [10] was 3.45, the “glycan array binding signal (z-score)” value [11] was 1.06 and the “glycan array binding signal (z-score)” value [12] was 1.34. The “glycan array binding signal (z-score)” value [13] was -0.026, the “glycan array binding signal (z-score)” value [14] was 0.281 and the “glycan array binding signal (z-score)” value [15] was 0.197. For the same binder, the “glycan array binding signal (z-score)” value (Neu5Ac(a2-3)GalNAc) was 0.123, the “glycan array binding signal (z-score)” value [16] was -0.654 and the “glycan array binding signal (z-score)” value [17] was -1.33. For the same binder, the “glycan array binding signal (z-score)” value [18] was -0.072, the “glycan array binding signal (z-score)” value [19] was 1.09 and the “glycan array binding signal (z-score)” value [20] was -0.451. For the same binder, the “glycan array binding signal (z-score)” value (Neu5Ac(a2-6)Gal) was 0.153, the “glycan array binding signal (z-score)” value [21] was -2.08 and the “glycan array binding signal (z-score)” value (Neu5Ac(a2-6)Gal(b1-4)Glc) was -0.721. For the same binder, the “glycan array binding signal (z-score)” value [22] was 0.529, the “glycan array binding signal (z-score)” value [23] was 0.222 and the “glycan array binding signal (z-score)” value [24] was 0.015. For the same binder, the “glycan array binding signal (z-score)” value [25] was -0.441, the “glycan array binding signal (z-score)” value [26] was -0.653 and the “glycan array binding signal (z-score)” value [27] was -1.16. For the same binder, the “glycan array binding signal (z-score)” value [28] was -0.607, the “glycan array binding signal (z-score)” value [29] was 0.015 and the “glycan array binding signal (z-score)” value [30] was -0.389. For the same binder, the “glycan array binding signal (z-score)” value [31] was -0.576, the “glycan array binding signal (z-score)” value [32] was 0.35 and the “glycan array binding signal (z-score)” value [33] was -0.694. For the same binder, the “glycan array binding signal (z-score)” value [34] was -0.281, the “glycan array binding signal (z-score)” value [35] was -0.647 and the “glycan array binding signal (z-score)” value [36] was 0.256. For the same binder, the “glycan array binding signal (z-score)” value [37] was -1.3, the “glycan array binding signal (z-score)” value [38] was 0.533 and the “glycan array binding signal (z-score)” value [39] was -0.373. The “glycan array binding signal (z-score)” value [40] was -0.318, the “glycan array binding signal (z-score)” value [41] was -0.445 and the “glycan array binding signal (z-score)” value [42] was -0.808. The “glycan array binding signal (z-score)” value [43] was 1.48.
